In publication PMC4819193:
These are yes or no findings as the source states them, for the method shown. Binding can be weak; no strength is given.

By UniProt entry, the sequences of proteins in these tests, tags left out. Where a name states a change or a piece, a line headed by the entry shows the natural chain unless it says otherwise.
UniProt F8SNQ6: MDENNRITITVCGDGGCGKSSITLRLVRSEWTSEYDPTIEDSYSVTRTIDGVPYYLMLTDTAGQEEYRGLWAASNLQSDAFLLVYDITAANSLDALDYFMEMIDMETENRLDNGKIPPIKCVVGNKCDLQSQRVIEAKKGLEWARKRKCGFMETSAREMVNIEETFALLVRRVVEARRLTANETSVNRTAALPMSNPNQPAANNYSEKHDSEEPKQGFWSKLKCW
UniProt A0A0U2WZR5: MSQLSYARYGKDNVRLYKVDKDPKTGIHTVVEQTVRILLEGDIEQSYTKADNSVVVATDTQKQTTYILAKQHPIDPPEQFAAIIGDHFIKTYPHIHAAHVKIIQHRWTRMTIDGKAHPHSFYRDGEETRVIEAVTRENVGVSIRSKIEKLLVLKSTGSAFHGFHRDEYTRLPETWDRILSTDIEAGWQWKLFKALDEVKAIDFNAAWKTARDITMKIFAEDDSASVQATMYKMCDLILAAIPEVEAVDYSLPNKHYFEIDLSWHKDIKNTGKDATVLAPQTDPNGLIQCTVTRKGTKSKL

Target: GST-Clg2p (Curvularia lunata) (UniProt F8SNQ6)
Experiment: pull-down; both purified

His-ClUrase (from UniProt A0A0U2WZR5) was tested, and the binding was “binds”.
